From paper doi:10.1101/2025.07.14.664640
No constants are given. Whether binding was seen depends on the method and setting. Binding seen in cells or lysates may run through a third protein. Some entries that bind do so weakly or less than the wild type. Tags and fused reporters may be left off the sequences shown.

Chains of the proteins cited; added tags and fusions are not shown.
UniProt Q14247: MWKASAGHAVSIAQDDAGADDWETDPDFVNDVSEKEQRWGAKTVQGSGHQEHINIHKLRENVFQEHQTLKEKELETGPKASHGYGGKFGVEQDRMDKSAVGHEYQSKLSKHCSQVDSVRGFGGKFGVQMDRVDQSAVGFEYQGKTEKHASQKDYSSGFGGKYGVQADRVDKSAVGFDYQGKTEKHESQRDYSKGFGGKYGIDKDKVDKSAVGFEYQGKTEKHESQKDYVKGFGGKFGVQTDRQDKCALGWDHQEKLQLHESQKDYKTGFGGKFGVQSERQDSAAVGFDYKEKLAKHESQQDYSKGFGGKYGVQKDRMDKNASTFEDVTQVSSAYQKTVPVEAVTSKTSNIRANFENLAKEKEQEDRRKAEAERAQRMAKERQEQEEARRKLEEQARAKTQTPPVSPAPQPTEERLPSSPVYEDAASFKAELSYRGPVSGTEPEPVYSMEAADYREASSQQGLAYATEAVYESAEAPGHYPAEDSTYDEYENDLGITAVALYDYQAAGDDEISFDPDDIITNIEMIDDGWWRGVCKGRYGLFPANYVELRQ

Target: T1, EGFP-HS1BP3 WT (UniProt Q53T59)
T1 sequence: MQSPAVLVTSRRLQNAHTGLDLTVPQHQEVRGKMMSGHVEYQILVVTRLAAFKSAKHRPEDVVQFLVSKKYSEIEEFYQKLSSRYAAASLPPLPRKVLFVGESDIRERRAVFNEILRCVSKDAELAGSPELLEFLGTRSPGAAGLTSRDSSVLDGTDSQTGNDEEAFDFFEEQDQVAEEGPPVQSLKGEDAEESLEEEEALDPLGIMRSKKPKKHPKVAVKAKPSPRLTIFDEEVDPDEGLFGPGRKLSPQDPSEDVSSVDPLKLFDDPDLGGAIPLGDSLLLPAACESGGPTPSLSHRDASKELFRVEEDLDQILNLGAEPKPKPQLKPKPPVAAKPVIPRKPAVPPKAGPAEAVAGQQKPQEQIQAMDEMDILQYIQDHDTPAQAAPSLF
Test: co-IP

binding: binds
Substance: Src substrate cortactin, endogenous in MKN-74 cells (from UniProt Q14247 1-550)
